# Results from the supplement of paper PMC7238544.
# Counter-ions that a name gives are not always drawn. ± gives the standard deviation of the averaged measurements. The list shows a part of the results. The data scatter; read single values as rough.
# Columns and labels:
# [1] = tested on: hAMSC donor 1; assay: Hoechst total cell count ratio vs vehicle control; higher = more cells (less toxicity)
# [2] = tested on: hAMSC donor 2; assay: as above
# [3] = tested on: hAMSC donor 1; assay: transgenic luciferase activity (RLU/mg protein) fold change vs vehicle control (ratio); higher = more transgene expression
# [4] = tested on: hAMSC donor 2; assay: as above
# [5] = tested on: hAMSC donor 1; assay: transfection efficiency (EGFP+ cells / Hoechst count) fold change vs vehicle control (ratio); hAMSC are human adipose-derived mesenchymal stem cells given an EGFP-luciferase plasmid by lipofection; higher = enhanced transfection
# [6] = tested on: hAMSC donor 2; assay: as above
# [7] = priming compound concentration 0.2 µM
# [8] = priming compound concentration 1.7 µM
# [9] = priming compound concentration 13 µM
Structure (SMILES),"Hoechst total cell count ratio [1, 7]","Hoechst total cell count ratio [1, 8]","Hoechst total cell count ratio [1, 9]","Hoechst total cell count ratio [2, 7]","Hoechst total cell count ratio [2, 8]","Hoechst total cell count ratio [2, 9]","transgenic luciferase activity [3, 7]","transgenic luciferase activity [3, 8]","transgenic luciferase activity [3, 9]","transgenic luciferase activity [4, 7]","transgenic luciferase activity [4, 8]","transgenic luciferase activity [4, 9]","transfection efficiency [5, 7]","transfection efficiency [5, 8]","transfection efficiency [5, 9]","transfection efficiency [6, 7]","transfection efficiency [6, 8]","transfection efficiency [6, 9]"
C[C@]12CC[C@@H]3c4ccc(O)cc4CC[C@H]3[C@@H]1CC[C@@H]2O [Beta-estradiol],1.11 ± 0.075,1.5 ± 0.065,1.14 ± 0.081,1.39 ± 0.21,0.873 ± 0.029,0.893 ± 0.055,0.667 ± 0.21,0.873 ± 0.24,0.546 ± 0.27,0.821 ± 0.17,0.782 ± 0.059,1.08 ± 0.24,1.18 ± 0.34,0.887 ± 0.23,1.35 ± 0.39,0.895 ± 0.18,1.11 ± 0.29,1.1 ± 0.056
Nc1ccn([C@H]2CC[C@@H](CO)O2)c(=O)n1 [Zalcitabine],1.15 ± 0.053,1.07 ± 0.2,1.11 ± 0.13,1.23 ± 0.36,0.905 ± 0.1,1.16 ± 0.12,0.423 ± 0.13,0.677 ± 0.11,0.835 ± 0.29,0.813 ± 0.19,1.06 ± 0.041,1.81 ± 0.69,1.27 ± 0.23,1.02 ± 0.46,0.991 ± 0.28,0.951 ± 0.18,1.52 ± 0.1,1.49 ± 0.076
OCCN(CCO)c1nc(N2CCCCC2)c2nc(N(CCO)CCO)nc(N3CCCCC3)c2n1 [Dipyridamole],1.1 ± 0.017,1.16 ± 0.092,1.21 ± 0.033,1.1 ± 0.094,1.15 ± 0.089,1.16 ± 0.24,0.973 ± 0.13,1.41 ± 0.46,0.847 ± 0.18,0.557 ± 0.093,0.761 ± 0.044,0.545 ± 0.1,1.11 ± 0.11,1.48 ± 0.62,0.995 ± 0.076,0.94 ± 0.17,0.967 ± 0.08,0.957 ± 0.19
Clc1cccc(Cl)c1NC1=NCCN1 [Clonidine hydrochloride],1.25 ± 0.044,1.31 ± 0.029,1.19 ± 0.2,1.33 ± 0.062,1.04 ± 0.021,0.934 ± 0.012,0.68 ± 0.34,2.14 ± 0.65,1.23 ± 0.46,1.02 ± 0.045,0.699 ± 0.12,1.89 ± 1.1,1.2 ± 0.28,1.07 ± 0.076,1.34 ± 0.44,0.857 ± 0.23,0.975 ± 0.086,1.49 ± 0.052
Cc1[nH]cnc1CN1CCc2c(c3ccccc3n2C)C1=O [Alosetron monohydrochloride],1.15 ± 0.041,1.21 ± 0.051,1.1 ± 0.023,1.11 ± 0.22,0.971 ± 0.023,1.01 ± 0.043,0.663 ± 0.45,0.752 ± 0.12,0.225 ± 0.15,0.594 ± 0.14,1.29 ± 0.14,1.1 ± 0.089,1.27 ± 0.21,0.89 ± 0.3,1.24 ± 0.16,1.01 ± 0.22,1.11 ± 0.045,0.991 ± 0.2
CCOc1ccc2ccccc2c1C(=O)N[C@@H]1C(=O)N2[C@@H]1SC(C)(C)[C@@H]2C(=O)O [Nafcillin sodium],1.17 ± 0.016,1.27 ± 0.061,1.2 ± 0.092,1.22 ± 0.12,1.35 ± 0.14,1.22 ± 0.11,0.866 ± 0.024,0.756 ± 0.31,1.15 ± 0.095,0.829 ± 0.24,0.858 ± 0.017,1.24 ± 0.23,0.953 ± 0.47,0.883 ± 0.42,1.43 ± 0.42,0.868 ± 0.099,0.886 ± 0.14,1.03 ± 0.1
O=c1ncc(F)c[nH]1 [5-Fluoro-2-pyrimidone],0.987 ± 0.15,1.25 ± 0.26,1.26 ± 0.23,1.28 ± 0.16,1.03 ± 0.025,1.04 ± 0.075,1.01 ± 0.35,1.76 ± 1.6,0.141 ± 0.043,0.605 ± 0.086,0.787 ± 0.17,0.344 ± 0.31,0.966 ± 0.32,1.15 ± 0.27,0.828 ± 0.17,1.11 ± 0.15,1.02 ± 0.037,1.08 ± 0.12
CC(C)(C)C(O)/C=C/c1ccc2c(c1)OCO2 (configuration not stated) [Stiripentol],1.17 ± 0.022,1.32 ± 0.16,1.17 ± 0.028,1.27 ± 0.18,0.837 ± 0.12,1.27 ± 0.16,1.17 ± 0.58,1.11 ± 0.34,0.951 ± 0.33,0.675 ± 0.19,0.902 ± 0.21,0.874 ± 0.071,1.36 ± 0.42,1.03 ± 0.27,1.27 ± 0.38,0.943 ± 0.11,1.21 ± 0.16,1.11 ± 0.28
COc1ccccc1N1CCN(CCCNc2cc(=O)n(C)c(=O)n2C)CC1 [Urapidil hydrochloride],1.18 ± 0.046,1.28 ± 0.096,1.2 ± 0.21,1.17 ± 0.19,1.07 ± 0.14,1.02 ± 0.057,0.799 ± 0.17,0.989 ± 0.066,0.393 ± 0.12,0.981 ± 0.14,0.521 ± 0.057,0.736 ± 0.033,0.816 ± 0.18,1.04 ± 0.11,1.31 ± 0.17,1.01 ± 0.12,0.949 ± 0.044,1.08 ± 0.031
O=C(O)/C=C/c1ccc(Cn2ccnc2)cc1 [Ozagrel hydrochloride],1.14 ± 0.17,1.39 ± 0.058,1.15 ± 0.22,1.54 ± 0.15,0.998 ± 0.036,0.998 ± 0.071,0.317 ± 0.1,0.951 ± 0.33,0.169 ± 0.18,0.597 ± 0.2,0.688 ± 0.094,1.3 ± 0.74,1.25 ± 0.31,0.99 ± 0.21,1.19 ± 0.084,0.893 ± 0.29,1.06 ± 0.043,1.24 ± 0.2
CCCCC[C@H](O)/C=C/[C@H]1[C@H](O)CC(=O)[C@@H]1CCCCCCC(=O)O [Prostaglandin E1],1.14 ± 0.098,1.31 ± 0.17,1.29 ± 0.084,1.2 ± 0.15,1.02 ± 0.12,1.6 ± 0.042,0.551 ± 0.04,1.13 ± 0.31,1.5 ± 0.24,0.525 ± 0.24,0.974 ± 0.18,1.08 ± 0.17,0.937 ± 0.2,1.68 ± 0.47,0.776 ± 0.17,0.953 ± 0.22,1.17 ± 0.37,0.991 ± 0.028
CCC(=O)OCC(=O)[C@@]1(OC(=O)CC)[C@@H](C)C[C@H]2[C@@H]3CCC4=CC(=O)C=C[C@]4(C)[C@@]3(Cl)[C@@H](O)C[C@@]21C [Beclomethasone dipropionate],1.24 ± 0.076,1.25 ± 0.038,1 ± 0.065,1.21 ± 0.23,1.31 ± 0.037,1.17 ± 0.19,4.06 ± 0.63,7.45 ± 2,7.14 ± 0.47,1.68 ± 0.85,4.08 ± 0.24,6.94 ± 4.3,1.95 ± 0.31,1.53 ± 0.69,2.39 ± 0.54,1.69 ± 0.51,1.58 ± 0.29,2.42 ± 0.29
NC12CC3CC(CC(C3)C1)C2 [Symmetrel],1.52 ± 0.21,1.27 ± 0.18,1.28 ± 0.084,0.839 ± 0.26,0.589 ± 0.13,1.34 ± 0.32,0.492 ± 0.28,0.65 ± 0.27,0.342 ± 0.18,–,–,1.08 ± 0.098,1.03 ± 0.29,1.02 ± 0.097,0.6 ± 0.15,1.33 ± 0.38,1.14 ± 0.092,1.57 ± 0.2

# Sorted by molecular weight (high to low): some entries from above.
Structure (SMILES),"Hoechst total cell count ratio [1, 7]","Hoechst total cell count ratio [1, 8]","Hoechst total cell count ratio [1, 9]","Hoechst total cell count ratio [2, 7]","Hoechst total cell count ratio [2, 8]","Hoechst total cell count ratio [2, 9]","transgenic luciferase activity [3, 7]","transgenic luciferase activity [3, 8]","transgenic luciferase activity [3, 9]","transgenic luciferase activity [4, 7]","transgenic luciferase activity [4, 8]","transgenic luciferase activity [4, 9]","transfection efficiency [5, 7]","transfection efficiency [5, 8]","transfection efficiency [5, 9]","transfection efficiency [6, 7]","transfection efficiency [6, 8]","transfection efficiency [6, 9]"
CCCCC[C@H](O)/C=C/[C@H]1[C@H](O)CC(=O)[C@@H]1CCCCCCC(=O)O [Prostaglandin E1],1.14 ± 0.098,1.31 ± 0.17,1.29 ± 0.084,1.2 ± 0.15,1.02 ± 0.12,1.6 ± 0.042,0.551 ± 0.04,1.13 ± 0.31,1.5 ± 0.24,0.525 ± 0.24,0.974 ± 0.18,1.08 ± 0.17,0.937 ± 0.2,1.68 ± 0.47,0.776 ± 0.17,0.953 ± 0.22,1.17 ± 0.37,0.991 ± 0.028
Clc1cccc(Cl)c1NC1=NCCN1 [Clonidine hydrochloride],1.25 ± 0.044,1.31 ± 0.029,1.19 ± 0.2,1.33 ± 0.062,1.04 ± 0.021,0.934 ± 0.012,0.68 ± 0.34,2.14 ± 0.65,1.23 ± 0.46,1.02 ± 0.045,0.699 ± 0.12,1.89 ± 1.1,1.2 ± 0.28,1.07 ± 0.076,1.34 ± 0.44,0.857 ± 0.23,0.975 ± 0.086,1.49 ± 0.052
O=c1ncc(F)c[nH]1 [5-Fluoro-2-pyrimidone],0.987 ± 0.15,1.25 ± 0.26,1.26 ± 0.23,1.28 ± 0.16,1.03 ± 0.025,1.04 ± 0.075,1.01 ± 0.35,1.76 ± 1.6,0.141 ± 0.043,0.605 ± 0.086,0.787 ± 0.17,0.344 ± 0.31,0.966 ± 0.32,1.15 ± 0.27,0.828 ± 0.17,1.11 ± 0.15,1.02 ± 0.037,1.08 ± 0.12
